Read-outs that look alike come from different tables or passages of the source. These are yes or no findings as the source states them, for the method shown. For some of these results: Binding seen in cells or lysates may run through a third protein. Some binding calls cover weakened binding; strength is not graded here. Sequences can lack the tags named with a protein.
Experiments:
[1] = target: T1, BIR2-YFP (Arabidopsis thaliana) (UniProt Q9LSI9); assay: co-IP
T1 sequence: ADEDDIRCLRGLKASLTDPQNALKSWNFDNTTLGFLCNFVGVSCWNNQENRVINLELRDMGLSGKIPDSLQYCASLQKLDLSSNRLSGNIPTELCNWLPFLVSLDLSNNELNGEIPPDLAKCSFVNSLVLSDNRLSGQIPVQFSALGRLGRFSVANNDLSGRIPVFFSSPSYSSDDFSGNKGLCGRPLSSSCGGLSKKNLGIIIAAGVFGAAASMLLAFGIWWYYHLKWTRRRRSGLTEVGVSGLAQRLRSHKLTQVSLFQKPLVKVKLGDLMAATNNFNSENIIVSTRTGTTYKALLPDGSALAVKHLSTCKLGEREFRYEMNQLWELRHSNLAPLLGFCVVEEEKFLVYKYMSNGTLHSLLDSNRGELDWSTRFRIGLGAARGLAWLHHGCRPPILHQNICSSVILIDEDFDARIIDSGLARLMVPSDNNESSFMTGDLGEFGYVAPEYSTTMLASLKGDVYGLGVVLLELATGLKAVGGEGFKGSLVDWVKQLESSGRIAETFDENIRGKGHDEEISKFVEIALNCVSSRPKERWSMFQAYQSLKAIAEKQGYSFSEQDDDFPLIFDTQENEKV

The chains behind the UniProt entries cited, without tags or fusion partners.
UniProt Q9FKN7: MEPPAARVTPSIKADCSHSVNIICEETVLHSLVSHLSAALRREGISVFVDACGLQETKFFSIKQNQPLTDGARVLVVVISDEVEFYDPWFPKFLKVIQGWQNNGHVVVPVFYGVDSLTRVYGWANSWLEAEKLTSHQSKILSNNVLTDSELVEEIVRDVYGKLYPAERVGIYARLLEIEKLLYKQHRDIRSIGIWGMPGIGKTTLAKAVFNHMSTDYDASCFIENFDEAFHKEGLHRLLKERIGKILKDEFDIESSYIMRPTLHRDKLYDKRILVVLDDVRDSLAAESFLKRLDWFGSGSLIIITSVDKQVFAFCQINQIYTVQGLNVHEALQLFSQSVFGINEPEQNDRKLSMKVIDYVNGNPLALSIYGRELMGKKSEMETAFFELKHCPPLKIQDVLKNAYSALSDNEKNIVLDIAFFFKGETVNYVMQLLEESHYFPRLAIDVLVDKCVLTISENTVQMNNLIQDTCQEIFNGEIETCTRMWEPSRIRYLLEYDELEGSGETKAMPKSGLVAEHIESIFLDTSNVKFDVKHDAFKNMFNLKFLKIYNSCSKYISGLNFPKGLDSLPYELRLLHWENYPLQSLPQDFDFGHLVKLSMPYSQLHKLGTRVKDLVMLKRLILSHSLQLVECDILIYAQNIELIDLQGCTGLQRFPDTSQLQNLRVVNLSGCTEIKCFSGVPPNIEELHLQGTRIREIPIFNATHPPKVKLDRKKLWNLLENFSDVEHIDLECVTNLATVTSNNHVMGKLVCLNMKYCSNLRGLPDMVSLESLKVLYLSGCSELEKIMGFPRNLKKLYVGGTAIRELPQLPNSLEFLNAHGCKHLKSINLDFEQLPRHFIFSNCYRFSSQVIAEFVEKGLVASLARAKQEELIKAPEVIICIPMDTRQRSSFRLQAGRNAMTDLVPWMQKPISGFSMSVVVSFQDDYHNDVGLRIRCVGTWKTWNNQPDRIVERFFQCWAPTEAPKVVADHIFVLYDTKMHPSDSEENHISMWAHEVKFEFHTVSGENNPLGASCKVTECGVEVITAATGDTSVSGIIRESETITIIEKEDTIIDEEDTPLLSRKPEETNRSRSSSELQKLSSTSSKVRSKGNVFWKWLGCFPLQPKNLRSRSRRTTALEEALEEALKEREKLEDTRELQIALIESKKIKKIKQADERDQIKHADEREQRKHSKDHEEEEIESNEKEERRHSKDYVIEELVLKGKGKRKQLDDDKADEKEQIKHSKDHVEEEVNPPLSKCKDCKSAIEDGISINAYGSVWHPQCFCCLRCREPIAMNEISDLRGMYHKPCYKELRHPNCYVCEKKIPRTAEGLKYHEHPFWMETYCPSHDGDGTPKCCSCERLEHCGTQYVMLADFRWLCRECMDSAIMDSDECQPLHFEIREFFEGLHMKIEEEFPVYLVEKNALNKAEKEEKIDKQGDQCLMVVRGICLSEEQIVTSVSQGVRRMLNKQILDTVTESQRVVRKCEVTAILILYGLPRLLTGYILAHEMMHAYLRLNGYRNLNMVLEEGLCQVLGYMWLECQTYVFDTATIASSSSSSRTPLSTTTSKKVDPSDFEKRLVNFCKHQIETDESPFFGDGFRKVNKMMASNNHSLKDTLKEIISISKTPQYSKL

[2] = target: T1, BIR2-YFP (Arabidopsis thaliana); assay: co-IP; remark: listed apart in the source
[3] = target: T2, BAK1, split-ubiquitin fusion (Arabidopsis thaliana) (UniProt Q94F62); assay: two-hybrid
T2 sequence: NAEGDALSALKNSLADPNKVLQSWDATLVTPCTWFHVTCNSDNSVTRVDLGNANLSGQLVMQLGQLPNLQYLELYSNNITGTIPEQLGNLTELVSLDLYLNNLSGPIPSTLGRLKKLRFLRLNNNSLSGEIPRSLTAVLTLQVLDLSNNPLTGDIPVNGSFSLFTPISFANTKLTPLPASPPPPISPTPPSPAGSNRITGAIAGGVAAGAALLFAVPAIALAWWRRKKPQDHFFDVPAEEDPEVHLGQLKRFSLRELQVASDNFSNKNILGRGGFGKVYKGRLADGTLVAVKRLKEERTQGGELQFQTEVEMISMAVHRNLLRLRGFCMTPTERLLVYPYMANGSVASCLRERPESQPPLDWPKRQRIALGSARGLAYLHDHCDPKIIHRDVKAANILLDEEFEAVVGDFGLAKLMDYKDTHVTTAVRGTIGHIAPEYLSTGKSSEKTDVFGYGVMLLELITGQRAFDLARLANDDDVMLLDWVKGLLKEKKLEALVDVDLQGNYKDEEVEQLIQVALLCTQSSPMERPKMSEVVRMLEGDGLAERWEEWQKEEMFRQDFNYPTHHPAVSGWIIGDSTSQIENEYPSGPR

[4] = target: T3, BAK1-Nluc (Arabidopsis thaliana) (UniProt Q94F62); assay: split reporter
T3 sequence: T2 sequence

## CHS3-V5 (from UniProt Q9FKN7 1-1613)
[1]
  binding: binds

B1: CSA1-V5 (protein, UniProt F4KIF3 1-1197)
chain: MTSSSSWVKTDGETPQDQVFINFRGVELRKNFVSHLEKGLKRKGINAFIDTDEEMGQELSVLLERIEGSRIALAIFSPRYTESKWCLKELAKMKERTEQKELVVIPIFYKVQPVTVKELKGDFGDKFRELVKSTDKKTKKEWKEALQYVPFLTGIVLDEKSDEDEVINIIIRKVKEILNRRSEGPPSKCSALPPQRHQKRHETFWGIELRIKQLEEKLRFGSDETTRTIGVVGMPGIGKTTLATMLYEKWNDRFLRHVLIRDIHEASEEDGLNYLATKFLQGLLKVENANIESVQAAHEAYKDQLLETKVLVILDNVSNKDQVDALLGERNWIKKGSKILITTSDKSLMIQSLVNDTYEVPPLSDKDAIKHFIRYAFDGNEGAAPGPGQGNFPKLSKDFVHYTKGNPLALQMLGKELLGKDESHWGLKLNALDQHHNSPPGQSICKMLQRVWEGSYKALSQKEKDALLDIACFRSQDENYVASLLDSDGPSNILEDLVNKFMINIYAGKVDMHDTLYMLSKELGREATATDRKGRHRLWHHHTIIAVLDKNKGGSNIRSIFLDLSDITRKWCFYRHAFAMMRDLRYLKIYSTHCPQECESDIKLNFPEGLLLPLNEVRYLHWLKFPLKEVPQDFNPGNLVDLKLPYSEIERVWEDNKDAPKLKWVNLNHSKKLNTLAGLGKAQNLQELNLEGCTALKEMHVDMENMKFLVFLNLRGCTSLKSLPEIQLISLKTLILSGCSKFKTFQVISDKLEALYLDGTAIKELPCDIGRLQRLVMLNMKGCKKLKRLPDSLGQLKALEELILSGCSKLNEFPETWGNMSRLEILLLDETAIKDMPKILSVRRLCLNKNEKISRLPDLLNKFSQLQWLHLKYCKNLTHVPQLPPNLQYLNVHGCSSLKTVAKPLVCSIPMKHVNSSFIFTNCNELEQAAKEEIVVYAERKCHLLASALKRCDESCVPEILFCTSFPGCEMPSWFSHDAIGSMVEFELPPHWNHNRLSGIALCVVVSFKNCKSHANLIVKFSCEQNNGEGSSSSITWKVGSLIEQDNQEETVESDHVFIGYTNCLDFIKLVKGQGGPKCAPTKASLEFSVRTGTGGEATLEVLKSGFSFVFEPEENRVPSPRNDDVKGKVKINKTPSANGCFKDQAKGNESPKGQWQTYIENSSTNIPSEAHSSQKTGFNGFNGMYSVCVLYEMYSH
[2]
  binding: binds

B2: CSA1, split-ubiquitin fusion (protein, UniProt F4KIF3 1-1197)
chain: B1 chain
[3]
  binding: no binding

B3: CSA1-Cluc (protein, UniProt F4KIF3 1-1197)
chain: B1 chain
[4]
  binding: no binding

Source: publication doi:10.1101/2021.04.11.438637
